{"source": "patent US11453640B2", "about": "“Small molecules for disrupting the super elongation complex and inhibiting transcription elongation for cancer therapy” (NORTHWESTERN UNIVERSITY, priority 2018, dated 2022)", "key": {"[1]": {"system": "SEC subunits AFF1, AFF4, ELL2, CCNT1 and CDK9 mRNA", "experiment": "RNA-seq of SEC subunit mRNA expression in HEK293T cells", "format": "cell-based, human", "details": "20 μM, 12 hr", "from_the_text": "FIG. 8, related to FIG. 1. Peptidomimetic identification of disruptors of the AFF4-CCNT1 interaction within the Super Elongation Complex. (A) Schematic of AlphaLISA assay of the AFF4-CCNT1 interaction. Anti-GST AlphaLISA acceptor beads and AlphaScreen streptavidin donor beads (Perkin Elmer) were used to detect the interaction of GST-CCNT1 (AA1-300) and biotin-AFF4 (AA32-67). (B-C) Optimization of the AlphaLISA assay with various biotin-AFF4 peptide and GST-CCNT1 concentrations. No CCNT1 (B) and mutant AFF4 (C) were used as negative controls. Data are represented as Mean+/−SD. (D) Scheme for chemical synthesis of SEC inhibitors KL-1 and KL-2. Reagents and conditions: a. LDA, THF, −78° C., 15 min., then diethyl oxalate, −78° C. to room temperature. b. […] 293T cells were treated with 20 μM of KL-1 or KL-2 for 6 hr, and the protein levels of BRD2, BRD4, Pol II (RPB1), SPT5, MED26, MYC, HSP90 (load control) and Tubulin (load control) were measured by western blotting. […] HCT-116 cells were treated with 20 μM of KL-1 or KL-2 for 6 hr, and the protein levels of AFF1, AFF4, CCNT1, CDK9 and Tubulin (load control) were determined by western blotting. […] The log2CPM (counts per million) of the SEC subunits were calculated with HTseq. […]\nRNA-seq Analysis. […] Exonic reads were assigned to specific genes from Ensembl release 75 using Bioconductor package GenomicRanges countOverlaps. […]"}, "[2]": {"system": "SEC components AFF1 and AFF4", "experiment": "Western blotting of SEC and P-TEFb component protein levels in treated cells", "format": "cell-based, human", "details": "HEK293T and HCT-116 cells, 20 μM, 6 hr", "from_the_text": "FIG. 1. Peptidomimetic identification of disruptors of the AFF4-CCNT1 interaction within the Super Elongation Complex. (A) Schematic for the identification of small molecule inhibitors of the AFF4-CCNT1 interaction using in silico high-throughput screening. Compounds from the ZINC database were docked with the AFF4-CCNT1 structure (4IMY) using a three-tier glide-docking algorithm, which led to 40 candidates. Residues forming the deep binding pocket of CCNT1 are labeled orange and residues of the AFF4 peptide are labeled red. (B) Validation screening identified KL-1 as a potential SEC disruptor using AlphaLISA screening. […] The Ki constants of both compounds were measured with the AlphaLISA assays. […] 5 μl, 10 and 20 μl cell lysates were loaded and the protein levels of AFF1, AFF4, CCNT1, CDK9 and Tubulin (load control) were determined by western blotting.\nFIG. 8, related to FIG. 1. […] 293T cells were treated with 20 μM of KL-1 or KL-2 for 6 hr, and the protein levels of BRD2, BRD4, Pol II (RPB1), SPT5, MED26, MYC, HSP90 (load control) and Tubulin (load control) were measured by western blotting. […] HCT-116 cells were treated with 20 μM of KL-1 or KL-2 for 6 hr, and the protein levels of AFF1, AFF4, CCNT1, CDK9 and Tubulin (load control) were determined by western blotting. […] The log2CPM (counts per million) of the SEC subunits were calculated with HTseq. […]"}}, "note": "At least one compound was matched to its structure with a doubt left."}
{"compound": "Cc1ccc(Cl)cc1NC(=O)C(=O)CC(=O)c1ccc(F)cc1", "note": "[KL-2, N-(5-chloro-2-methylphenyl)-4-oxo-(4-fluorophenyl)-2-oxobutanamide]", "values": [{"measurement": "mRNA levels of SEC components", "setting": "[1]", "result": "do not result in decreased mRNA levels of SEC components"}, {"measurement": "protein levels of CCNT1, CDK9, Pol II, BRD2 and BRD4", "setting": "[2]", "result": "no major effect"}, {"measurement": "protein levels of SEC components AFF1 and AFF4", "setting": "[2]", "result": "led to depletion of SEC components AFF1 and AFF4"}]}
